Assay results published in paper PMC5703971.
Results are given in words; binding and its absence hold for the method and conditions named. In cells and extracts the contact can be indirect. Some entries that bind do so weakly or less than the wild type.

The chains behind the UniProt entries cited, without tags or fusion partners. Residues count along the entry.
UniProt Q9QUK6, residues 26-835: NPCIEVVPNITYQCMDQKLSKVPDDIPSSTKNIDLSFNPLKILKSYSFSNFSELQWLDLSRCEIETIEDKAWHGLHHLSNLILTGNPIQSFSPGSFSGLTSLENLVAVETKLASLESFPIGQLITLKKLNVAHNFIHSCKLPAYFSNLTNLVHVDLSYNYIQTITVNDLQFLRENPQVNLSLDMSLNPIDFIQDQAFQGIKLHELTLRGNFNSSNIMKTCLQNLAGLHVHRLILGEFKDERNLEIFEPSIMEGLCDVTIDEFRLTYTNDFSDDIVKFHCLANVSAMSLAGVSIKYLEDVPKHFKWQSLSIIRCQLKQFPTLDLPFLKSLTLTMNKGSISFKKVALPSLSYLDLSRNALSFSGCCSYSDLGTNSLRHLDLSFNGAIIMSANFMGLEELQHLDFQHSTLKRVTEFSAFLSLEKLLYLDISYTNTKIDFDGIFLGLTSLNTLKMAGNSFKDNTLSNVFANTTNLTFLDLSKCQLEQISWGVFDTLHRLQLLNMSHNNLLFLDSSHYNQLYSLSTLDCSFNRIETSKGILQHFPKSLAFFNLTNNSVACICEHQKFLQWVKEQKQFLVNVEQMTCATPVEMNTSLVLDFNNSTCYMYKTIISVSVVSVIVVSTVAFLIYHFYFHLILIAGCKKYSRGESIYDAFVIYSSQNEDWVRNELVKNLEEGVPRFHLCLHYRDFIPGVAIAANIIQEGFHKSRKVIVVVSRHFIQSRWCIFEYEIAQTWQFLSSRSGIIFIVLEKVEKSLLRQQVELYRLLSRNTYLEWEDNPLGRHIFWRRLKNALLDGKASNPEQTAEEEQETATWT

Target: toll-like receptor 4 (mouse (endogenous in RAW264.7)) (UniProt Q9QUK6)
Test: co-IP; RAW264.7 cells pretreated with baicalein (0, 10, 25, 50 uM) for 2 h, then LPS (1 ug/ml) for 24 h; 500 ug cellular protein with 2 ug anti-TLR4 antibody 2 h at 4 C, protein A beads overnight at 4 C; immunoblot for MD-2 and TLR4

binding: binds
B1: myeloid differentiation protein-2 (protein, UniProt Q9JHF9 19-160)
chain: EKQQWFCNSSDAIISYSYCDHLKFPISISSEPCIRLRGTNGFVHVEFIPRGNLKYLYFNLFISVNSIELPKRKEVLCHGHDDDYSFCRALKGETVNTSIPFSFEGILFPKGHYRCVAEAIAGDTEEKLFCLNFTIIHRRDVN
